Assay results taken from publication PMC7404307.

Assays:
[1] = target: cardiac troponin I (cTnI) (UniProt P19429); assay: AlphaLisa sandwich; settings: 5 nM cTnI, diluted human plasma, L-DNA (all L-2'-deoxyribose), AlphaLisa: selection buffer (PBS, 1 mg/mL BSA, 0.01 ug/mL poly(dI-dC), 5 mM EDTA) or diluted human plasma, label: 5' biotin, synthetic backbone
[2] = test system: skeletal troponin I (sTnI); assay: AlphaLisa sandwich; settings: 5 nM sTnI, diluted human plasma, L-DNA (all L-2'-deoxyribose), AlphaLisa: selection buffer (PBS, 1 mg/mL BSA, 0.01 ug/mL poly(dI-dC), 5 mM EDTA) or diluted human plasma, label: 5' biotin, synthetic backbone

CAGTGAGTGATGGTGAGGGCTTAGTTCGCCGCTCATGCCGAATCTCCTGTATAAATACCCACACTGTCCATACACG [A6 spiegelmer]
binding result ([1]; with B10, signal about 5x): binds
binding result ([2]; with B10): no binding

AGTCTCCGCTGTCCTCCCGATGCACTTGACGTATGTCTCACTTTCTTTTCATTGACATGGGATGACGCCGTGACTG [B10 spiegelmer]
binding result ([1]; with A6 or C6): binds
binding result ([2]; with A6 or C6): no binding

CAGTGAGTGATGGTGAGGGTGAATCGGTGTCGACTATTAAATTAAGTTGTGGTTGTTCCCACACTGTCCATACACG [C6 spiegelmer]
binding result ([1]; with B10, signal about 5x): binds
binding result ([2]; with B10): no binding

The exact form of at least one protein or probe is not confirmed. For part of these data: No signal at the amounts used counts as a negative. For part of these data: At least one verdict rests on a figure or table, not on a statement of the authors.
